# According to the supplement of paper PMC8728848:
# Some of the results follow.
# B1: Flo10 (Saccharomyces cerevisiae), P36170 (protein)
# chain: MPVAARYIFLTGLFLLSVANVALGTTEACLPAGEKKNGMTINFYQYSLKDSSTYSNPSYMAYGYADAEKLGSVSGQTKLSIDYSIPCNGASDTCACSDDDATEYSASQVVPVKRGVKLCSDNTTLSSKTEKRENDDCDQGAAYWSSDLFGFYTTPTNVTVEMTGYFLPPKTGTYTFGFATVDDSAILSVGGNVAFECCKQEQPPITSTDFTINGIKPWNADAPTDIKGSTYMYAGYYYPIKIVYSNAVSWGTLPVSVVLPDGTEVNDDFEGYVFSFDDNATQAHCSVPNPAEHARTCVSSATSSWSSSEVCTECTETESTSYVTPYVTSSSWSSSEVCTECTETESTSTSTPYVTSSSSSSSEVCTECTETESTSYVTPYVSSSTAAANYTSSFSSSSEVCTECTETESTSTSTPYVTSSSWSSSEVCTECTETESTSYVTPYVSSSTAAANYTSSFSSSSEVCTECTETESTSTSTPYVTSSSSSSSEVCTECTETESTSYVTPYVSSSTAAANYTSSFSSSSEVCTECTETESTSTSTPYVTSSSWSSSEVCTECTETESTSYVTPYVSSSTAAANYTSSFSSSSEVCTECTETESTSTSTPYATSSTGTATSFTASTSNTMTSLVQTDTTVSFSLSSTVSEHTNAPTSSVESNASTFISSNKGSVKSYVTSSIHSITPMYPSNQTVTSSSVVSTPITSESSESSASVTILPSTITSEFKPSTMKTKVVSISSSPTNLITSYDTTSKDSTVGSSTSSVSLISSISLPSSYSASSEQIFHSSIVSSNGQALTSFSSTKVSSSESSESHRTSPTTSSESGIKSSGVEIESTSTSSFSFHETSTASTSVQISSQFVTPSSPISTVAPRSTGLNSQTESTNSSKETMSSENSASVMPSSSATSPKTGKVTSDETSSGFSRDRTTVYRMTSETPSTNEQTTLITVSSCESNSCSNTVSSAVVSTATTTINGITTEYTTWCPLSATELTTVSKLESEEKTTLITVTSCESGVCSETASPAIVSTATATVNDVVTVYSTWSPQATNKLAVSSDIENSASKASFVSEAAETKSISRNNNFVPTSGTTSIETHTTTTSNASENSDNVSASEAVSSKSVTNPVLISVSQQPRGTPASSMIGSSTASLEMSSYLGIANHLLTNSGISIFIASLLLAIV
# Tests used:
# Test in all cases: glycan array binding signal (z-score within array); higher = stronger binding
# Settings in all cases: glycan notation: IUPAC condensed, linker removed
# Neu5Ac(a2-8)Neu5Ac = target: Neu5Ac(a2-8)Neu5Ac
# Summary of the method: (§1)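 Negative Z-scores can be read as non-binding. The Z-score is calculated within each array and then averaged across arrays of one protein sequence at different concentrations or buffers and across linkers. Arrays, 3228 in all, were curated from the Consortium for Functional Glycomics database and kept only where the protein sequence was available.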
# [1] = target: Neu5Ac(a2-8)Neu5Ac(a2-3)Gal(b1-4)Glc
# Summary of the method: as §1
# [2] = target: Neu5Ac(a2-8)Neu5Ac(a2-3)[GalNAc(b1-4)]Gal(b1-4)Glc
# Summary of the method: as §1
# [3] = target: Neu5Ac(a2-8)Neu5Ac(a2-8)Neu5Ac
# Summary of the method: as §1
# [4] = target: Neu5Ac(a2-8)Neu5Ac(a2-8)Neu5Ac(a2-3)Gal(b1-4)Glc
# Summary of the method: as §1
# [5] = target: Neu5Ac(a2-8)Neu5Ac(a2-8)Neu5Ac(a2-3)[GalNAc(b1-4)]Gal(b1-4)Glc
# Summary of the method: as §1
# [6] = target: Neu5Ac(a2-8)Neu5Ac(a2-8)Neu5Ac(a2-8)Neu5Ac(a2-3)[GalNAc(b1-4)]Gal(b1-4)Glc
# Summary of the method: as §1
# [7] = target: Neu5Ac(b2-6)Gal(b1-4)GlcNAc
# Summary of the method: as §1
# Neu5Ac(b2-6)GalNAc = target: Neu5Ac(b2-6)GalNAc
# Summary of the method: as §1
# [8] = target: Neu5Ac9Ac(a2-3)Gal(b1-3)GlcNAc
# Summary of the method: as §1
# [9] = target: Neu5Ac9Ac(a2-3)Gal(b1-4)GlcNAc
# Summary of the method: as §1
# [10] = target: Neu5Ac9Ac(a2-6)Gal(b1-4)GlcNAc
# Summary of the method: as §1
# [11] = target: Neu5Gc(a2-3)Gal(b1-3)GlcNAc
# Summary of the method: as §1
# [12] = target: Neu5Gc(a2-3)Gal(b1-3)[Fuc(a1-4)]GlcNAc
# Summary of the method: as §1
# Neu5Gc(a2-3)Gal(b1-4)Glc = target: Neu5Gc(a2-3)Gal(b1-4)Glc
# Summary of the method: as §1
# [13] = target: Neu5Gc(a2-3)Gal(b1-4)GlcNAc
# Summary of the method: as §1
# [14] = target: Neu5Gc(a2-3)Gal(b1-4)[Fuc(a1-3)]GlcNAc
# Summary of the method: as §1
# [15] = target: Neu5Gc(a2-6)Gal(b1-4)GlcNAc
# Summary of the method: as §1
# Neu5Gc(a2-6)GalNAc = target: Neu5Gc(a2-6)GalNAc
# Summary of the method: as §1
# [16] = target: Neu5Gc(b2-6)Gal(b1-4)GlcNAc
# Summary of the method: as §1
binder,measurement,setting,value
B1,glycan array binding signal (z-score),Neu5Ac(a2-8)Neu5Ac,1.28
same,glycan array binding signal (z-score),[1],-0.058
same,glycan array binding signal (z-score),[2],-0.604
same,glycan array binding signal (z-score),[3],0.423
same,glycan array binding signal (z-score),[4],-0.279
same,glycan array binding signal (z-score),[5],-0.734
same,glycan array binding signal (z-score),[6],0.14
same,glycan array binding signal (z-score),[7],-0.737
same,glycan array binding signal (z-score),Neu5Ac(b2-6)GalNAc,-0.62
same,glycan array binding signal (z-score),[8],-0.021
same,glycan array binding signal (z-score),[9],0.049
same,glycan array binding signal (z-score),[10],-0.857
same,glycan array binding signal (z-score),[11],-0.627
same,glycan array binding signal (z-score),[12],-0.571
same,glycan array binding signal (z-score),Neu5Gc(a2-3)Gal(b1-4)Glc,-0.84
same,glycan array binding signal (z-score),[13],-0.495
same,glycan array binding signal (z-score),[14],0.41
same,glycan array binding signal (z-score),[15],2.07
same,glycan array binding signal (z-score),Neu5Gc(a2-6)GalNAc,-0.092
same,glycan array binding signal (z-score),[16],-0.486

# Some of the entries so far, with tabs.
binder	measurement	setting	value
B1	glycan array binding signal (z-score)	Neu5Ac(a2-8)Neu5Ac	1.28
same	glycan array binding signal (z-score)	[1]	-0.058
